# According to article PMC8210596:
# The chains behind the UniProt entries cited, without tags or fusion partners. Where a name states a change or a piece, a line headed by the entry shows the natural chain unless it says otherwise. A line that says so, or that is headed by a name, gives the form on record, which may keep a tag or linker. Residues count along the entry.
# Sirtuin 5 (Sirt5), overexpressed in HEK293T cells (mouse (cDNA of the murine cell line RAW264.7)) (Q8K2C6, residues 37-310): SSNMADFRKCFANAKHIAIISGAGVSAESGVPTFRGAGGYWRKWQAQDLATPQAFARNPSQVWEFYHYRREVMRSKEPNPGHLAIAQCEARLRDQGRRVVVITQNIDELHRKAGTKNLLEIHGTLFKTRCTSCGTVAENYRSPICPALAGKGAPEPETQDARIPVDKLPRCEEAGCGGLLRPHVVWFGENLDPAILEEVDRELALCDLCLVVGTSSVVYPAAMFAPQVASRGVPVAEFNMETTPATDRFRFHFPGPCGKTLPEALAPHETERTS
# Sirt5-H158Y, overexpressed in HEK293T cells (mouse (cDNA of the murine cell line RAW264.7)) (Q8K2C6, form named): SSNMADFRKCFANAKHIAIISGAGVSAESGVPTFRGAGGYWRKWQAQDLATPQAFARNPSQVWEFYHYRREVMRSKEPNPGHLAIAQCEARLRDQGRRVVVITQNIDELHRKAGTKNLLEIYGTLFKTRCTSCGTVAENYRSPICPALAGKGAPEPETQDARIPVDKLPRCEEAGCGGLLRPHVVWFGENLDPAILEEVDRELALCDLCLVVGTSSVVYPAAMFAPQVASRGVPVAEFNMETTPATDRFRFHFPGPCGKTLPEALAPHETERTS
# UniProt Q62167: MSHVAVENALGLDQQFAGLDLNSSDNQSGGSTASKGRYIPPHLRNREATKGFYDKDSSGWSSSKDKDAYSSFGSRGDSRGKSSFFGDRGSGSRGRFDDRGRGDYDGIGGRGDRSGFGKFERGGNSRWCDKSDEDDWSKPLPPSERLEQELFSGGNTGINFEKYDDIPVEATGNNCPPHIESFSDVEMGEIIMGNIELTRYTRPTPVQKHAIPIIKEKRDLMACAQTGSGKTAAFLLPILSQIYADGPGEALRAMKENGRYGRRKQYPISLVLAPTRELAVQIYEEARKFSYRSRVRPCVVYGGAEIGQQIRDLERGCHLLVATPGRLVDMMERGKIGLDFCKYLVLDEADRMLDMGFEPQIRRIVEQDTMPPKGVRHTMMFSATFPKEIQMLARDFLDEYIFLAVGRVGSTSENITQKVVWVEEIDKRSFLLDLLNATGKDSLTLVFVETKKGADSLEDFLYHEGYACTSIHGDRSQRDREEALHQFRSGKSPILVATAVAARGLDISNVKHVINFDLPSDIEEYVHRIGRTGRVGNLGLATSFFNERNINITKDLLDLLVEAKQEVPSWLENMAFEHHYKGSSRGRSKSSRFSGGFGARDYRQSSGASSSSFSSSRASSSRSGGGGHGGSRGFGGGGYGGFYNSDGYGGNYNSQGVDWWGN
# Results are given in words; binding and its absence hold for the method and conditions named. Binding seen in cells or lysates may run through a third protein. Some results given as binding are weak or reduced against the parent protein; the word gives no strength.
# Key:
# [1] = target: Sirt5, endogenous in bone marrow-derived macrophages (mouse (endogenous in BMDMs)) (UniProt Q8K2C6); experiment: co-IP
# [2] = target: Sirt5-H158Y, overexpressed in HEK293T cells (mouse (cDNA of the murine cell line RAW264.7)) (UniProt Q8K2C6); experiment: co-IP; HEK293T cells transfected with the expression plasmids for 24 h, lysed (Cell Signaling lysis buffer, protease inhibitors), lysate incubated with agarose affinity gel antibody for 2 h, immunoblot
# [3] = target: Sirtuin 5 (Sirt5), overexpressed in HEK293T cells (mouse (cDNA of the murine cell line RAW264.7)) (UniProt Q8K2C6); experiment: as above
Substance,binding [1],binding [2],binding [3]
"DDX3, endogenous in bone marrow-derived macrophages (from UniProt Q62167 1-662)",binds,–,–
"DDX3X (DDX3), overexpressed in HEK293T cells (from UniProt Q62167 1-662)",–,binds weakly,binds
